PubChem BioAssay AID1224830, NIAID, 2016

Assay: 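Host factors that control LPS-induced TNF expression in human macrophages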 (primary screen)
System: human THP-1 monocytic leukaemia cells, TNF dual-luciferase reporter clone, PMA-differentiated to macrophage-like cells
Reagent: siRNA pool against human genes, 50 nM
Timing: LPS for 4 h, given about 3 days after siRNA transfection
Conditions: bacterial LPS (TLR4 ligand), 10 ng/ml
Read-out: 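TNF firefly reporter luminescence divided by renilla, normalised to the plate median, then turned into a robust z-score for each replicate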
Scale: TNF reporter robust z-score: higher = stronger TNF reporter response to LPS
Hit rule: 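a well is active when its z-score exceeds 2.8 or falls below -1.5; control wells carry no call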
Here is an unselected part of about 18,000 reagents. About 2,900 of them (16%) were called active. 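Calls are made per well; low scores hint the gene aids the LPS response, high scores that it dampens it.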 Repeated entries: four replicate wells of each siRNA pool. No sequences are given here.

{"target gene":"PPM1N (protein phosphatase, Mg2+/Mn2+ dependent 1N (putative))","TNF reporter robust z-score":2.95,"Outcome":"active"}
{"target gene":"PPM1N (protein phosphatase, Mg2+/Mn2+ dependent 1N (putative))","TNF reporter robust z-score":1.41,"Outcome":"inactive"}
{"target gene":"PPM1N (protein phosphatase, Mg2+/Mn2+ dependent 1N (putative))","TNF reporter robust z-score":1.46,"Outcome":"inactive"}
{"target gene":"PPM1N (protein phosphatase, Mg2+/Mn2+ dependent 1N (putative))","TNF reporter robust z-score":0.68,"Outcome":"inactive"}
{"target gene":"DYM (dymeclin)","TNF reporter robust z-score":0.93,"Outcome":"inactive"}
{"target gene":"DYM (dymeclin)","TNF reporter robust z-score":-0.18,"Outcome":"inactive"}
{"target gene":"DYM (dymeclin)","TNF reporter robust z-score":0.5,"Outcome":"inactive"}
{"target gene":"DYM (dymeclin)","TNF reporter robust z-score":-0.55,"Outcome":"inactive"}
{"target gene":"TMEM86A (transmembrane protein 86A)","TNF reporter robust z-score":1.5,"Outcome":"inactive"}
{"target gene":"TMEM86A (transmembrane protein 86A)","TNF reporter robust z-score":1.56,"Outcome":"inactive"}
{"target gene":"TMEM86A (transmembrane protein 86A)","TNF reporter robust z-score":-0.32,"Outcome":"inactive"}
{"target gene":"TMEM86A (transmembrane protein 86A)","TNF reporter robust z-score":0.7,"Outcome":"inactive"}
{"target gene":"TBR1 (T-box brain transcription factor 1)","TNF reporter robust z-score":-0.02,"Outcome":"inactive"}
{"target gene":"TBR1 (T-box brain transcription factor 1)","TNF reporter robust z-score":-0.03,"Outcome":"inactive"}
{"target gene":"TBR1 (T-box brain transcription factor 1)","TNF reporter robust z-score":-0.63,"Outcome":"inactive"}
{"target gene":"TBR1 (T-box brain transcription factor 1)","TNF reporter robust z-score":0.88,"Outcome":"inactive"}
{"target gene":"GHRL (ghrelin and obestatin prepropeptide)","TNF reporter robust z-score":-1.67,"Outcome":"active"}
{"target gene":"GHRL (ghrelin and obestatin prepropeptide)","TNF reporter robust z-score":-1.32,"Outcome":"inactive"}
{"target gene":"GHRL (ghrelin and obestatin prepropeptide)","TNF reporter robust z-score":-1.69,"Outcome":"active"}
{"target gene":"GHRL (ghrelin and obestatin prepropeptide)","TNF reporter robust z-score":-1.8,"Outcome":"active"}
{"target gene":"C1orf87 (chromosome 1 open reading frame 87)","TNF reporter robust z-score":-0.32,"Outcome":"inactive"}
{"target gene":"C1orf87 (chromosome 1 open reading frame 87)","TNF reporter robust z-score":0.9,"Outcome":"inactive"}
{"target gene":"C1orf87 (chromosome 1 open reading frame 87)","TNF reporter robust z-score":0.4,"Outcome":"inactive"}
{"target gene":"C1orf87 (chromosome 1 open reading frame 87)","TNF reporter robust z-score":0.73,"Outcome":"inactive"}
{"target gene":"PURA (purine rich element binding protein A)","TNF reporter robust z-score":1.65,"Outcome":"inactive"}
{"target gene":"PURA (purine rich element binding protein A)","TNF reporter robust z-score":2.89,"Outcome":"active"}
{"target gene":"PURA (purine rich element binding protein A)","TNF reporter robust z-score":2.54,"Outcome":"inactive"}
{"target gene":"PURA (purine rich element binding protein A)","TNF reporter robust z-score":2.63,"Outcome":"inactive"}
{"target gene":"SP1 (Sp1 transcription factor)","TNF reporter robust z-score":-1.95,"Outcome":"active"}
{"target gene":"SP1 (Sp1 transcription factor)","TNF reporter robust z-score":-1.92,"Outcome":"active"}
{"target gene":"SP1 (Sp1 transcription factor)","TNF reporter robust z-score":-1.94,"Outcome":"active"}
{"target gene":"SP1 (Sp1 transcription factor)","TNF reporter robust z-score":-1.39,"Outcome":"inactive"}
{"target gene":"FAM178B (family with sequence similarity 178 member B)","TNF reporter robust z-score":-1.05,"Outcome":"inactive"}
{"target gene":"FAM178B (family with sequence similarity 178 member B)","TNF reporter robust z-score":0.5,"Outcome":"inactive"}
{"target gene":"FAM178B (family with sequence similarity 178 member B)","TNF reporter robust z-score":-0.25,"Outcome":"inactive"}
{"target gene":"FAM178B (family with sequence similarity 178 member B)","TNF reporter robust z-score":0.95,"Outcome":"inactive"}
{"target gene":"FGFR2 (fibroblast growth factor receptor 2)","TNF reporter robust z-score":1.62,"Outcome":"inactive"}
{"target gene":"FGFR2 (fibroblast growth factor receptor 2)","TNF reporter robust z-score":20.1,"Outcome":"active"}
{"target gene":"FGFR2 (fibroblast growth factor receptor 2)","TNF reporter robust z-score":1.45,"Outcome":"inactive"}
{"target gene":"FGFR2 (fibroblast growth factor receptor 2)","TNF reporter robust z-score":1.15,"Outcome":"inactive"}
{"target gene":"GATA1 (GATA binding protein 1)","TNF reporter robust z-score":-0.5,"Outcome":"inactive"}
{"target gene":"GATA1 (GATA binding protein 1)","TNF reporter robust z-score":-0.17,"Outcome":"inactive"}
{"target gene":"GATA1 (GATA binding protein 1)","TNF reporter robust z-score":-0.25,"Outcome":"inactive"}
{"target gene":"GATA1 (GATA binding protein 1)","TNF reporter robust z-score":-0.47,"Outcome":"inactive"}
{"target gene":"TMEM134 (transmembrane protein 134)","TNF reporter robust z-score":-0.83,"Outcome":"inactive"}
{"target gene":"TMEM134 (transmembrane protein 134)","TNF reporter robust z-score":0.16,"Outcome":"inactive"}
{"target gene":"TMEM134 (transmembrane protein 134)","TNF reporter robust z-score":1,"Outcome":"inactive"}
{"target gene":"TMEM134 (transmembrane protein 134)","TNF reporter robust z-score":1.33,"Outcome":"inactive"}
